{"source": "patent US20040002517A1", "about": "(Chemagis Ltd., priority 2002, published 2004)", "details": "stored at 40° C.", "note": "Counter-ions that a name gives are not always drawn.", "data": [{"smiles": "COc1cc2c(cc1OC)C(=O)C(CC1CCN(Cc3ccccc3)CC1)C2", "note": "(stereo not shown) [amorphous donepezil hydrochloride, donepezil hydrochloride]", "values": [{"measurement": "change in the impurity content", "result": "no change"}]}]}
